Data on 42 sequences can be found in PMC7819943, “Rice protein-binding microarrays: a tool to detect cis-acting elements near promoter regions in rice”.

Amino acid sequences for entries named in this document (tags omitted).
UniProt Q0JBA9, entry or part of it: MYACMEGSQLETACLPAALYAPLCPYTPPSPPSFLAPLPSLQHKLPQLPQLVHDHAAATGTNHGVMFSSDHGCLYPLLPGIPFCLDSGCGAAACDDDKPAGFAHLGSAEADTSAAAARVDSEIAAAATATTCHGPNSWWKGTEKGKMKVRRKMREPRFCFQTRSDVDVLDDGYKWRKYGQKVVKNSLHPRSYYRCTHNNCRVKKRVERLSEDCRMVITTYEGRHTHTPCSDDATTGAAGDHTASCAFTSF

The list shows a part of the results.

This assay deals with OsWRKY34 (Oryza sativa, UniProt Q0JBA9 1-250). In words: protein-binding microarray (RPBM); PBS, 2% BSA, 51.3 ng/ul salmon testes DNA, 50 uM zinc acetate, 200 nM TF, 25 C, 1 h; high values mean tight binding. The conditions noted are these: protein: recombinant; tags: N-terminal polyhistidine and DsRed monomer fusion (pET32a); label: CyDye5-dUTP incorporated in the synthesized complementary strand; 3' TTTTT single-stranded linker to array surface; dsDNA, one strand shown. In a few lines: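 Using Ni–NTA, transcription factors fused N-terminally to polyhistidine and DsRed were purified after expression in E. coli BL21-CodonPlus. These were incubated at 200 nM with a blocked, double-stranded custom Agilent array for 1 h at 25 °C in a buffer containing 50 µM zinc acetate, and the array was washed. The binding signal is per-feature fluorescence intensity (arbitrary units) on an Axon 4000B scanner.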
With “GGCAGATTTTTTTTATTCGGTACGAGGTTGTTTCTTAATACGGAGTCACCTAGTGCAG”, the binding signal is 10900 fluorescence intensity (a.u.).

As for “ACAAAGATTGCATAAACCTGCATGATTCCTACTTTGTTTTCGGAGTCACCTAGTGCAG”, the binding signal is 8700 fluorescence intensity (a.u.).

Consider “TTTACCCTAGTCGATCTCCCCGTCGCTTCGGTCTCGACTCCGGAGTCACCTAGTGCAG”, for which the binding signal is 10200 fluorescence intensity (a.u.).

On to “AAGCTCCGATCCACAGCGCACCTCGAGCCCTACCTCCGATCGGAGTCACCTAGTGCAG”, for which the binding signal was 8940 fluorescence intensity (a.u.).

Turning to “GGCCGCACCGCTCCGCCTTCGTCTCCGCCACCCGCCACCCCGGAGTCACCTAGTGCAG”, the binding signal was 9910 fluorescence intensity (a.u.).

Take “CCCTACGTGCCCTTAAATTGGACATCCTCTTTCACTTCACCGGAGTCACCTAGTGCAG”: the binding signal was 11000 fluorescence intensity (a.u.).

In the case of “CATAAACAGATGCTAATTCTTGGTGGTCGGGGTGGGTCTCCGGAGTCACCTAGTGCAG”, the binding signal is 13600 fluorescence intensity (a.u.).

In the case of “GTTGATGATGCCAATATCATTTTTGGTTGTGCTTTCATGGCGGAGTCACCTAGTGCAG”, the binding signal was 8290 fluorescence intensity (a.u.).

On to “CAATCATTCAATCATCGCCGCCTTATCTTTCCCAATTCGACGGAGTCACCTAGTGCAG”, for which the binding signal is 10100 fluorescence intensity (a.u.).

With “ACTTTTTTTTTTGTCTGATCTGTTATTTTTATCCCTCTACCGGAGTCACCTAGTGCAG”, the binding signal was 8950 fluorescence intensity (a.u.).

With “TATATTTCTCTTGTGCATAGGGATGTTTAGTCTTTTACATCGGAGTCACCTAGTGCAG”, the binding signal is 8430 fluorescence intensity (a.u.).

Regarding “GGTCCTACGTCGTACTGCCAGAGATTAAACAAGTTCCCTACGGAGTCACCTAGTGCAG”, the binding signal is 8820 fluorescence intensity (a.u.).

For “CTCCACCGCCGCATCTGTCGTCCGGCCGCGCATCCGTGCTCGGAGTCACCTAGTGCAG”, the binding signal is 8600 fluorescence intensity (a.u.).

As for “CTGATAACTTCCATCCAGTCCGCTCGAGATAACCGGTTTTCGGAGTCACCTAGTGCAG”, the binding signal is 10700 fluorescence intensity (a.u.).

As to “CACATATCGTTTAAATTTTCGACTTGACCGTTTTTCAATTCGGAGTCACCTAGTGCAG”, the binding signal is 9550 fluorescence intensity (a.u.).

On to “TATCTATCTATATCTCTCGCTTCCACTAACCTCAGCTTCTCGGAGTCACCTAGTGCAG”, for which the binding signal is 8990 fluorescence intensity (a.u.).

Take “AAATTAAATTTAAAAATTTAAATTTTGACTTTTTCTTGACCGGAGTCACCTAGTGCAG”: the binding signal was 8250 fluorescence intensity (a.u.).

For “CTCGTTCCAAAGTCTTTCGTTTGATCTATCAAAAGGCATCCGGAGTCACCTAGTGCAG”, the binding signal is 8580 fluorescence intensity (a.u.).

Turning to “GTAGTGATTATACTGCACTTGCATTTTAAAATTTTTCATCCGGAGTCACCTAGTGCAG”, the binding signal was 8090 fluorescence intensity (a.u.).

On to “AAAATTAACTTCCCCATGCACACGCCATGCACAGTTTTAACGGAGTCACCTAGTGCAG”, for which the binding signal is 8820 fluorescence intensity (a.u.).

Consider “CACCATTGCCGTCGCCGCCGCCGCCGCCGCCCGTCGTGGCCGGAGTCACCTAGTGCAG”, for which the binding signal was 9360 fluorescence intensity (a.u.).

Turning to “TTGTTGGTGTTTCCTCGTCCGCGTCGTCGGTTGCATTCTCCGGAGTCACCTAGTGCAG”, the binding signal is 13600 fluorescence intensity (a.u.).

“ATTGGTTTTCATTTGTGTGTTTCAGTTCAGTTTTTCCTAGCGGAGTCACCTAGTGCAG”: the binding signal is 10400 fluorescence intensity (a.u.).

Regarding “GTATCATCTTATACTAATATTATGTGGTCTTTGATAAAACCGGAGTCACCTAGTGCAG”, the binding signal is 8560 fluorescence intensity (a.u.).

“GTGGCGGTTAACTCCTTCTTACCCGTTCTTTCTCACGCTTCGGAGTCACCTAGTGCAG”: the binding signal is 10200 fluorescence intensity (a.u.).

As for “CCGCTGGCATCATCCCCGCTCGTCGCCGTCGTCGTGCTGCCGGAGTCACCTAGTGCAG”, the binding signal is 8520 fluorescence intensity (a.u.).

Turning to “GCATTCTGTGAACTCCTGAATTATGTTTTGCTGTTGTGAACGGAGTCACCTAGTGCAG”, the binding signal was 10100 fluorescence intensity (a.u.).

Consider “GTTGTGTTTTTGTCAAAGTTCGTTCGCTTCAGCCTTCACGCGGAGTCACCTAGTGCAG”, for which the binding signal was 8960 fluorescence intensity (a.u.).

“CTCACTCTCTCACTGTTTCGTTCTCTCTCTCCCATTCTGTCGGAGTCACCTAGTGCAG”: the binding signal was 11800 fluorescence intensity (a.u.).

For the sequence “CGAATCTTGATCTCTCTCTTTCATCGCCTCTTGTGTTCGCCGGAGTCACCTAGTGCAG”, the binding signal was 8930 fluorescence intensity (a.u.).

On to “TTCCACGCCCAACTTTGATCGTCTGTCTTATTTAAAAATTCGGAGTCACCTAGTGCAG”, for which the binding signal is 8500 fluorescence intensity (a.u.).

For “CAATCACATATTTTGTTTGTAGATTTTGTTTATGTTATTTCGGAGTCACCTAGTGCAG”, the binding signal is 8730 fluorescence intensity (a.u.).

For the sequence “TCTAGTGCATGATTGTGTTATTATATTGTTCTCAACTATACGGAGTCACCTAGTGCAG”, the binding signal was 8300 fluorescence intensity (a.u.).

With “AGCTTCCGGACAAACCAGCCAATGCAAACTTCATTTGTACCGGAGTCACCTAGTGCAG”, the binding signal is 8860 fluorescence intensity (a.u.).

Turning to “GCTGAGCTCCTACCCTCCAATGCCGTCCATCTCCATGTCCCGGAGTCACCTAGTGCAG”, the binding signal was 9910 fluorescence intensity (a.u.).

Regarding “CATGCGTTAATAGTTTATCTCGTTTTACTTACCTTCTCAACGGAGTCACCTAGTGCAG”, the binding signal was 9460 fluorescence intensity (a.u.).

For “GCCGGCTTCTCCATTGTCTCGCCGATCCGGCCGGAAAAACCGGAGTCACCTAGTGCAG”, the binding signal was 9480 fluorescence intensity (a.u.).

As to “TTAATCATGCGCTAATCAATTGTGCAGTTTTACGTACACTCGGAGTCACCTAGTGCAG”, the binding signal is 8500 fluorescence intensity (a.u.).

“GGTTTTAGCATCAGTTGTTGTTGTTTCTGACCTGATCAGACGGAGTCACCTAGTGCAG”: the binding signal is 9640 fluorescence intensity (a.u.).

Turning to “CCTAGGTAGTTCAATAGTAGTTATGTTTTCTGGCGGCGACCGGAGTCACCTAGTGCAG”, the binding signal is 8580 fluorescence intensity (a.u.).

With “AGAGGAGGGGATGAACAAGGGCAGTATGATCCAAGAAAAACGGAGTCACCTAGTGCAG”, the binding signal is 8120 fluorescence intensity (a.u.).

Regarding “ACACTTTGACAGACAGTATCACTCGTATACAGACAACTTCCGGAGTCACCTAGTGCAG”, the binding signal was 11000 fluorescence intensity (a.u.).
